Some of the results follow. Further columns of the screen follow, without active or inactive calls. The list favours compounds with an active or inconclusive main result. The note in brackets gives the kind of curve behind each potency; many fits are weak.
Test: qHTS Assay for Lipid Storage Modulators in Drosophila S3 Cells;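 on cell number change: cells counted by Cell Tracker Red CMTPX staining in the red channel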
Settings: BODIPY lipid droplet fluorescence, 18-24 h; for cell number change: measured here: cell count max response, cells fed with added oleic acid
Outline: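 Laser-scanning cytometry quantifies lipid droplet accumulation (500–530 nm total intensity; droplet/cell object ratio) in oleic acid-fed (400 uM added) Drosophila S3 cells treated with a concentration series. 20 uM Triacsin C defined 100% inhibition.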

[1] = measured here: cell number channel AC50, cells fed with added oleic acid
[2] = measured here: lipid fluorescence (Fed channel) AC50, cells fed with added oleic acid

| SMILES | cell number change [%] | AC50 [1] | AC50 [2] |
| --- | --- | --- | --- |
| Cc1ccc(S(=O)(=O)N2CCN(C(=O)c3ccccc3)CC2)cc1 | -2.63 |  |  |
| O=C(N/N=C/c1cc(Cl)ccc1O)c1ccc(Br)cc1 | 55.4 | 4.11 µM [rising, full curve, poor fit] |  |
| O=C(NCc1cccc(F)c1)C1CCN(S(=O)(=O)Cc2ccccc2)CC1 | 4.78 |  | 29.1 µM [rising, single point] |
| CCOc1ccc(-c2cn3ccccc3n2)cc1[N+](=O)[O-] | 4.87 |  | 6.51 µM [rising, single point] |
| Cc1ccc(NC(=O)CN2C(=O)S/C(=C\c3cccn3C)C2=O)cc1 | 4.02 |  |  |
| O=C(O)CSc1c(O)c2ccccc2[nH]c1=O | -32.5 |  |  |
| CCCCOc1ccc(-c2nnn(CC(=O)NCCc3c[nH]c4ccccc34)n2)cc1 | -11.6 | 1.84 µM [rising, partial curve] | 2.06 µM [rising, partial curve] |
| O=C1C2CC=C(Cl)CC2C(=O)N1CNc1ccccn1 (centres undefined) | -9.37 |  | 25.9 µM [falling, partial curve] |
| NC(=O)c1ccc(NC(=O)COC(=O)c2ccc(Cl)nc2)cc1 | -18.9 |  | 6.51 µM [rising, partial curve, poor fit] |
| CSc1nsc(SCC(=O)Nc2cc(C(=O)O)ccc2C)n1 | -10.9 |  | 0.164 µM [falling, full curve] |
| CCOC(=O)c1ccn(-c2nc(-c3ccco3)cc(C(F)(F)F)n2)n1 | -13.4 |  | 3.66 µM [rising, single point] |
| O=C(NC1CCCc2ccccc21)c1ccc(Cl)nc1 (centres undefined) | 0.694 |  |  |
| CCOC(=O)N1CCN(C(=O)CNC(=O)c2ccc(Br)o2)CC1 | 18.9 |  |  |
| NS(=O)(=O)c1ccc(NC(=O)COC(=O)c2c3c(nc4ccccc24)/C(=C\c2ccc4c(c2)OCO4)CCC3)cc1 | -29.6 | 2.06 µM [rising, partial curve] | 29.1 µM [falling, single point] |
| C=CCN(c1ccccc1)S(=O)(=O)c1ccc(Cl)c(C(=O)OCC(=O)N(C)C2CCS(=O)(=O)C2)c1 (centres undefined) | -24.6 | 0.92 µM [rising, partial curve] |  |
| Cc1ccc(C23CC4CC(CC(C(=O)NCC(=O)O)(C4)C2)C3)cc1 |  |  | 29.1 µM [rising, single point] |
| COc1cc(C(=O)OCC(C)=O)c([N+](=O)[O-])cc1OC | 18.4 |  | 5.17 µM [falling, single point] |
| CCOC(=O)[C@H]1[C@H]2COc3ccc(OC)cc3[C@@H]2N2C(=O)c3cc(OC)ccc3NC(=O)[C@@]12C | -29.6 |  | 0.731 µM [rising, full curve, poor fit] |
| COCCNC(=O)c1c[nH]c2ccc(S(=O)(=O)N3CCOCC3)cc2c1=O | 10.9 |  | 14.6 µM [falling, single point] |

| SMILES | cell number change [%] | AC50 [1] | AC50 [2] |
| --- | --- | --- | --- |
| O=C(Nc1cccnc1N1CCOCC1)c1ccco1 | -48.2 | 5.8 µM [falling, partial curve] | 25.9 µM [falling, single point] |
| COc1cccc2cc3c(=O)n(-c4ccccc4)nc-3oc12 | -14.4 |  | 29.1 µM [rising, single point] |
| COC(=O)c1sccc1NC(=O)Cc1ccc(OC)c(OC)c1 | -50 | 1.64 µM [falling, partial curve] |  |
| CCOC(=O)c1c(NCc2ccc3c(c2)OCO3)c2ccccc2[nH]c1=O |  | 1.3 µM [rising, full curve] | 1.46 µM [rising, full curve] |
| Cc1nc(C)c(C(=O)Nc2nc3c(C)cccc3s2)o1 | -16 | 6.51 µM [falling, single point] | 6.51 µM [falling, partial curve] |
| CCC(/C=N/NC(=O)c1ccccc1F)CC | -24.4 | 1.46 µM [rising, full curve] | 0.326 µM [rising, full curve] |
| COc1ccccc1C(=O)NCCC(=O)NCC(c1ccc(F)cc1)N1CCOCC1 (centres undefined) |  | 4.11 µM [rising, partial curve] |  |
| CCOc1ccc(N(C(C)C(=O)Nc2cccnc2)S(C)(=O)=O)cc1 (centres undefined) | 35.7 |  | 4.11 µM [rising, full curve, poor fit] |
| Nc1ccc(O)c2c1C(=O)c1ccccc1C2=O | -2.39 |  | 29.1 µM [falling, single point] |
| COc1cc(/C=C/C(=O)Nc2cccc(S(=O)(=O)N3CCOCC3)c2)ccc1OCC#N | 28 |  | 29.1 µM [rising, single point] |
| Cc1ccc(C2(C)NC(=O)N(CC(=O)Nc3ccc(-c4nc5ccc(C)cc5s4)cc3)C2=O)cc1 (centres undefined) | 16.6 |  |  |
| O=C(CN1CCN(Cc2ccc(Cl)cc2)C1=O)NCCCN1CCOCC1 | -5.38 |  | 25.9 µM [rising, single point] |
| CCOc1ccc(N(CC(=O)Nc2ccccc2OCC)S(=O)(=O)c2c(C)noc2C)cc1 | -5.9 |  |  |
| COc1cccc2c1OC1(C)CC2NC(=O)N1c1cccc(C(=O)Nc2ccc3c(c2)OCCO3)c1 (centres undefined) | 13.1 |  | 6.51 µM [rising, single point] |
| Cc1ccc(Cl)cc1NC(=O)c1cnn2c1NC(c1ccco1)CC2C(F)(F)F (centres undefined) | 281 | 8.2 µM [rising, partial curve] | 0.291 µM [rising, partial curve, poor fit] |
| Cc1ccc(C(=O)NC(=S)Nc2ccccc2N2CCCC2)cc1[N+](=O)[O-] | -36.2 | 0.13 µM [rising, full curve] |  |
| Cn1nc(C(=O)NCc2ccccn2)c2ccccc2c1=O | -5.33 |  | 16.4 µM [rising, partial curve, poor fit] |
| COC(=O)Nc1ccc(S(=O)(=O)N(C)C)cc1 | -56.6 | 0.461 µM [falling, full curve, poor fit] | 6.51 µM [falling, partial curve] |
| NC(=O)c1cc(C(=O)c2ccccc2Cl)c[nH]1 | 14.8 | 0.164 µM [falling, full curve, poor fit] |  |

Three structures from above, ordered by formula weight, low to high:

| SMILES | cell number change [%] | AC50 [1] | AC50 [2] |
| --- | --- | --- | --- |
| CCOc1ccc(N(C(C)C(=O)Nc2cccnc2)S(C)(=O)=O)cc1 (centres undefined) | 35.7 |  | 4.11 µM [rising, full curve, poor fit] |
| Cc1ccc(C(=O)NC(=S)Nc2ccccc2N2CCCC2)cc1[N+](=O)[O-] | -36.2 | 0.13 µM [rising, full curve] |  |
| Cc1ccc(Cl)cc1NC(=O)c1cnn2c1NC(c1ccco1)CC2C(F)(F)F (centres undefined) | 281 | 8.2 µM [rising, partial curve] | 0.291 µM [rising, partial curve, poor fit] |
